Measurements reported in PubChem BioAssay AID493246 (Drosophila RNAi Screening Center, 2011)

Test: 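Genes fly cells need to grow and stay alive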 (primary screen)
System: Drosophila Kc and S2R+ cells
Reagent: long dsRNA against Drosophila genes
Measured: 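Raw, unnormalised count of remaining cells in each well; per-plate z-scores of cell number underlie the calls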
Direction: Kc cell number and S2R+ cell number: higher = more cells remaining
Active means: 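Active when the per-plate z-score of cell number is 3 or more in the direction of fewer cells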
The deposit covers about 21,000 reagents; this is a random part of those with a known target gene and a result. Over the whole deposit, 429 (2%) are marked active. 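Values are raw and not normalised between plates; calls rest on per-plate z-scores that were not deposited.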 A plus sign joins genes that one reagent is predicted to hit. Not given: the amount of reagent, the time to read-out.

The opening 5 records, to show the layout:
target	dsRNA	Kc cell number, rep 1	Kc cell number, rep 2	S2R+ cell number, rep 1	S2R+ cell number, rep 2	Outcome
CG13558	DRSC04196	1.52e6	1.54e6	1.27e6	1.38e6	inactive
Pten (Phosphatase and tensin homolog)	DRSC03402	1.40e6	1.48e6	1.16e6	1.30e6	inactive
CG11406	DRSC04010	1.43e6	1.55e6	9.74e5	1.08e6	inactive
CG11406	DRSC04108	1.66e6	1.76e6	1.37e6	1.38e6	inactive
corn (cornetto)	DRSC11021	1.33e6	1.38e6	1.28e6	1.20e6	inactive

Main list, from the start:
target	dsRNA	Kc cell number, rep 1	Kc cell number, rep 2	S2R+ cell number, rep 1	S2R+ cell number, rep 2	Outcome
CG13558	DRSC04196	1.52e6	1.54e6	1.27e6	1.38e6	inactive
Pten (Phosphatase and tensin homolog)	DRSC03402	1.40e6	1.48e6	1.16e6	1.30e6	inactive
CG11406	DRSC04010	1.43e6	1.55e6	9.74e5	1.08e6	inactive
CG11406	DRSC04108	1.66e6	1.76e6	1.37e6	1.38e6	inactive
corn (cornetto)	DRSC11021	1.33e6	1.38e6	1.28e6	1.20e6	inactive
TwdlP (TweedleP)	DRSC14734	1.53e6	1.60e6	1.03e6	1.15e6	inactive
GNBP3 (Gram-negative bacteria binding protein 3)	DRSC11170	1.52e6	1.54e6	1.22e6	1.32e6	inactive
Axs (Abnormal X segregation)	DRSC19333	1.55e6	1.50e6	1.13e6	1.26e6	inactive
janB (janus B)	DRSC16973	1.56e6	1.56e6	1.09e6	1.23e6	inactive
CG12115	DRSC17811	1.71e6	1.70e6	1.09e6	1.25e6	inactive
brn (brainiac)	DRSC18746	6.38e5		8.76e5		inactive
CG11594	DRSC08207	1.34e6	1.35e6	1.19e6	1.13e6	inactive
Atg18a (Autophagy-related 18a)	DRSC10943	1.26e6	1.36e6	1.35e6	1.31e6	inactive
CG31948	DRSC00740	1.65e6	1.78e6	9.94e5	1.24e6	inactive
Nthl1 (Nth-like DNA glycosylase 1)	DRSC03183	1.49e6	1.67e6	1.32e6	3.88e5	inactive
CG12439	DRSC02168	1.50e6	1.60e6	1.24e6	1.33e6	inactive
fd3F + CG42499 (retired record)	DRSC18160	1.48e6	1.48e6	9.99e5	1.13e6	inactive
fd3F + CG42499 (retired record)	DRSC18161	1.54e6	1.53e6	1.05e6	1.22e6	inactive
gish (gilgamesh)	DRSC16154	1.46e6	1.50e6	1.07e6	1.12e6	inactive
CG17633	DRSC02631	1.67e6	1.67e6	1.20e6	1.47e6	inactive
CG13950	DRSC00368	1.46e6	1.52e6	1.04e6	1.19e6	inactive
CG8401	DRSC07165	1.36e6	1.41e6	1.12e6	1.16e6	inactive
CG15369	DRSC18041	1.59e6	1.60e6	9.94e5	1.11e6	inactive
Adf1 (Adh transcription factor 1)	DRSC04941	1.51e6	1.52e6	1.02e6	1.14e6	inactive
Adf1 (Adh transcription factor 1)	DRSC04963	1.21e6	1.26e6	1.03e6	1.10e6	inactive
Acbp4 (Acyl-CoA binding protein 4)	DRSC11023	1.63e6	1.54e6	1.06e6	1.13e6	inactive
CG6503	DRSC16056	1.75e6	1.87e6	9.79e5	1.17e6	inactive
CaMKII (Calcium/calmodulin-dependent protein kinase II)	DRSC17214	5.17e5		8.60e5		inactive
CG2070	DRSC06814	1.88e6	1.82e6	1.25e6	1.45e6	inactive
Cda5 (Chitin deacetylase-like 5)	DRSC00003	1.43e6	1.39e6	1.02e6	1.16e6	inactive
Cda5 (Chitin deacetylase-like 5)	DRSC00529	1.50e6	1.52e6	1.07e6	1.22e6	inactive
Cda5 (Chitin deacetylase-like 5)	DRSC00532	1.60e6	1.63e6	1.18e6	1.28e6	inactive
CG15029 (retired record)	DRSC19610	1.60e6	1.68e6	1.17e6	1.29e6	inactive
Cyp313a4 (Cytochrome P450 313a4)	DRSC16627	1.59e6	1.64e6	1.32e6	1.38e6	inactive
CG18281	DRSC11742	1.60e6	1.64e6	1.30e6	1.40e6	inactive
tok (tolkin)	DRSC17087	1.86e6	1.82e6	1.34e6	1.39e6	inactive
HLH4C (Helix loop helix protein 4C)	DRSC18670	1.31e6	1.25e6	1.03e6	1.15e6	inactive
melt (melted)	DRSC11367	1.57e6	1.45e6	1.12e6	1.25e6	inactive
Chrac-16 (Chromatin accessibility complex 16kD protein)	DRSC20343	1.88e6	1.84e6	8.67e5	9.66e5	inactive
CtsL1 (Cathepsin L1)	DRSC05462	1.53e6	1.52e6	1.06e6	1.27e6	inactive
CtsL1 (Cathepsin L1)	DRSC07363	1.39e6	1.41e6	1.09e6	1.13e6	inactive
Ipk2 (Inositol phosphate kinase 2)	DRSC00357	1.60e6	1.65e6	1.01e6	1.15e6	inactive
Trf4-2 (Topoisomerase related function 4-2)	DRSC15237	1.47e6	1.58e6	1.02e6	1.04e6	inactive
CG7173	DRSC11812	1.36e6	1.46e6	8.34e5	9.09e5	inactive
CR18275 (pseudo)	DRSC18151	1.58e6	1.59e6	1.03e6	1.14e6	inactive
Pen (Pendulin)	DRSC03396	1.28e6	1.36e6	1.25e6	1.26e6	inactive
CG14689	DRSC14912	1.46e6	1.48e6	1.29e6	1.33e6	inactive
stops (slow termination of phototransduction)	DRSC15095	1.53e6	1.56e6	1.05e6	1.21e6	inactive
stops (slow termination of phototransduction)	DRSC15096	1.50e6	1.52e6	1.06e6	1.19e6	inactive
stops (slow termination of phototransduction)	DRSC15097	1.51e6	1.53e6	1.14e6	1.22e6	inactive
CG31848	DRSC01309	1.42e6	1.47e6	1.01e6	1.15e6	inactive
ctrip (circadian trip)	DRSC12242	1.51e6	1.54e6	1.09e6	1.21e6	inactive
ctrip (circadian trip)	DRSC12287	1.38e6	1.44e6	1.09e6	1.22e6	inactive
Regnase-1 (Regnase 1)	DRSC14278	1.42e6	1.47e6	1.11e6	1.19e6	inactive
dUTPase (Deoxyuridine triphosphatase)	DRSC01998	1.46e6	1.47e6	1.08e6	1.11e6	inactive
CG16721	DRSC18113	5.51e5		8.99e5		inactive
CG34225	DRSC05270	1.56e6	1.53e6	1.09e6	1.23e6	inactive
Lon (Lon protease)	DRSC11049	1.41e6	1.47e6	1.25e6	1.27e6	inactive
Vta1 (Vesicle trafficking 1)	DRSC08604	1.57e6	1.68e6	1.07e6	1.18e6	inactive
CG33303	DRSC02848	1.52e6	1.68e6	1.31e6	1.48e6	inactive
Cdk9 (Cyclin-dependent kinase 9)	DRSC04601	1.36e6	1.43e6	1.18e6	1.26e6	inactive
CG2841	DRSC17699	1.44e6	1.43e6	1.07e6	1.22e6	inactive
CG2841	DRSC18824	1.49e6	1.45e6	1.04e6	1.10e6	inactive
CG30350	DRSC07690	1.49e6	1.52e6	1.24e6	1.36e6	inactive
SuUR (Suppressor of Under-Replication)	DRSC11292	1.29e6	1.31e6	1.25e6	1.31e6	inactive
cathD (cathepsin D)	DRSC07588	1.58e6	1.64e6	1.27e6	1.36e6	inactive
CG9581	DRSC20695	1.49e6	1.57e6	1.07e6	1.19e6	inactive
Apt1 (Acyl-protein thioesterase 1)	DRSC10348	1.51e6	1.51e6	1.17e6	1.30e6	inactive
CG1523	DRSC15033	5.19e5		8.14e5		inactive
Rfx	DRSC16820	1.52e6	1.49e6	1.20e6	1.26e6	inactive
resilin	DRSC05627	5.37e5		7.61e5		inactive
resilin	DRSC06595	1.72e6	1.76e6	1.37e6	1.54e6	inactive
sloth2 + sloth1	DRSC17922	1.54e6	1.47e6	1.05e6	1.17e6	inactive
sloth2 + sloth1	DRSC17923	1.55e6	1.50e6	1.06e6	1.16e6	inactive
Invadolysin	DRSC15527	1.74e6	1.81e6	1.37e6	1.55e6	inactive
